Experiment [1] deals with N-cadherin (human (endogenous in WM793)) (UniProt P19022). The experiment in a line: co-IP; precleared lysates (400 μg) of shNT/shFUT4 WM793 cells, anti-N-cadherin or control IgG, protein A/G agarose beads, 4 °C, washed with PBS, immunoblot. On the technique in general: Immunoblotting shows a protein as a band on a membrane.
For experiment [2] the target is unchanged. The experiment can be described thus: proximity ligation; PLA on paraffin sections of a human melanoma tissue microarray (ME1004h) after antigen retrieval; PLA foci counted per cell.
Experiment [3] shares this target. The experiment can be described thus: proximity ligation; Duolink in situ PLA with two primary antibodies on fixed, permeabilised coverslip-grown melanoma cells (WM793); EV/FUT4-OE, shNT/shFUT4, 2FF, ARi, AR knockdown, DHT; foci per cell counted.

The chains behind the UniProt entries cited, without tags or fusion partners. Residues count along the entry.
UniProt P19022, residues 160-906: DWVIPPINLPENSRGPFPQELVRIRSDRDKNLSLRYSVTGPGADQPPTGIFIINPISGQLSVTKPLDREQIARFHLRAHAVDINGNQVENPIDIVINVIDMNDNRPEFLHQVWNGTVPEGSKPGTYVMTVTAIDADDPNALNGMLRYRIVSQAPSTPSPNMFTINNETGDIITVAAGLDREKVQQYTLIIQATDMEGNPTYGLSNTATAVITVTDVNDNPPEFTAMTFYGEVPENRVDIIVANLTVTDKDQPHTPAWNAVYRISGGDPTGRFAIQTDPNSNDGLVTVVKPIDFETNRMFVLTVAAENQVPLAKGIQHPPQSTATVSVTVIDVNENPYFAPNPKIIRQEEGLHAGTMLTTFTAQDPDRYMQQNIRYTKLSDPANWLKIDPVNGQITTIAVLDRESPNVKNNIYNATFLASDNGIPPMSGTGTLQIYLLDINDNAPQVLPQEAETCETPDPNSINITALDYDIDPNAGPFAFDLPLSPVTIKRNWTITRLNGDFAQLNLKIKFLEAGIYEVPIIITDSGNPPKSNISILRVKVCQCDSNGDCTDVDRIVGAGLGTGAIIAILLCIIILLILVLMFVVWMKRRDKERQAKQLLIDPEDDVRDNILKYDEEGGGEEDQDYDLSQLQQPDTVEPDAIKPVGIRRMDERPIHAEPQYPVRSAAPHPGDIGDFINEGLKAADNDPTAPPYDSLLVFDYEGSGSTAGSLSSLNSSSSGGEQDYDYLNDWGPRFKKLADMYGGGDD
UniProt P35222: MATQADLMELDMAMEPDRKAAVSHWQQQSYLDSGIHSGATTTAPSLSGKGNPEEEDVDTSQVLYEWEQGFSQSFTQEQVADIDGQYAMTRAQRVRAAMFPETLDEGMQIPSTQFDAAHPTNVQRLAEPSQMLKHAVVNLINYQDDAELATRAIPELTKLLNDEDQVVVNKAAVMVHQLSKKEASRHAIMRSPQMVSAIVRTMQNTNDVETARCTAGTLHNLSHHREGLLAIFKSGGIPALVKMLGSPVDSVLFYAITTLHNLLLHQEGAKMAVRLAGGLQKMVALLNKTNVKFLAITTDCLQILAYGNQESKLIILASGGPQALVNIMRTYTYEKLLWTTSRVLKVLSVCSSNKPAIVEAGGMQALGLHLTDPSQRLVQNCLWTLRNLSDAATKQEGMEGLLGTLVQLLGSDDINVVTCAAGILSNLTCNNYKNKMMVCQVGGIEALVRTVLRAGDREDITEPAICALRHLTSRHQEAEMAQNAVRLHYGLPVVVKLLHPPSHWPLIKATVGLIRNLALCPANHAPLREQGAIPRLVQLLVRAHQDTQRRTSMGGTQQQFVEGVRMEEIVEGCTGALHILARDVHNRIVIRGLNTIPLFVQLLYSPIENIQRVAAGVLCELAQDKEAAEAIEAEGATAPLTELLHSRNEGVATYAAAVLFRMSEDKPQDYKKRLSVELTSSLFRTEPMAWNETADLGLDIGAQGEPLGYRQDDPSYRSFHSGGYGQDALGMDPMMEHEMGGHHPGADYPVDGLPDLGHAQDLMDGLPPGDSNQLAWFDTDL

These are yes or no findings as the source states them, for the method shown. Binding seen in cells or lysates may run through a third protein. Some results given as binding are weak or reduced against the parent protein; the word gives no strength.

Take β-catenin (from UniProt P35222 1-781): the binding entry in experiment [1], in experiment [2] and in experiment [3] was “binds” each time.

B1: δ1-catenin (protein, UniProt O60716 1-968)
chain: MDDSEVESTASILASVKEQEAQFEKLTRALEEERRHVSAQLERVRVSPQDANPLMANGTLTRRHQNGRFVGDADLERQKFSDLKLNGPQDHSHLLYSTIPRMQEPGQIVETYTEEDPEGAMSVVSVETSDDGTTRRTETTVKKVVKTVTTRTVQPVAMGPDGLPVDASSVSNNYIQTLGRDFRKNGNGGPGPYVGQAGTATLPRNFHYPPDGYSRHYEDGYPGGSDNYGSLSRVTRIEERYRPSMEGYRAPSRQDVYGPQPQVRVGGSSVDLHRFHPEPYGLEDDQRSMGYDDLDYGMMSDYGTARRTGTPSDPRRRLRSYEDMIGEEVPSDQYYWAPLAQHERGSLASLDSLRKGGPPPPNWRQPELPEVIAMLGFRLDAVKSNAAAYLQHLCYRNDKVKTDVRKLKGIPVLVGLLDHPKKEVHLGACGALKNISFGRDQDNKIAIKNCDGVPALVRLLRKARDMDLTEVITGTLWNLSSHDSIKMEIVDHALHALTDEVIIPHSGWEREPNEDCKPRHIEWESVLTNTAGCLRNVSSERSEARRKLRECDGLVDALIFIVQAEIGQKDSDSKLVENCVCLLRNLSYQVHREIPQAERYQEAAPNVANNTGPHAASCFGAKKGKDEWFSRGKKPIEDPANDTVDFPKRTSPARGYELLFQPEVVRIYISLLKESKTPAILEASAGAIQNLCAGRWTYGRYIRSALRQEKALSAIADLLTNEHERVVKAASGALRNLAVDARNKELIGKHAIPNLVKNLPGGQQNSSWNFSEDTVISILNTINEVIAENLEAAKKLRETQGIEKLVLINKSGNRSEKEVRAAALVLQTIWGYKELRKPLEKEGWKKSDFQVNLNNASRSQSSHSYDDSTLPLIDRNQKSDKKPDREEIQMSNMGSNTKSLDNNYSTPNERGDHNRTLDRSGDLGDMEPLKGTTPLMQDEGQESLEEELDVLVLDDEGGQVSYPSMQKI
In the case of B1, in experiment [3], the binding entry is given as “binds”.

Values taken from PMC10850104.
